Laboratory results: paper PMC4880925 (Scientific Reports, 2016)
No constants are given. Whether binding was seen depends on the method and setting. Sequences can lack the tags named with a protein.

Biological target: CYP144A1-FLV (full-length 434 amino acid version of Mycobacterium tuberculosis cytochrome P450 CYP144A1) (Mycobacterium tuberculosis H37Rv) (UniProt P9WPL1)
Assay: SEC-MALS; both purified

B1: CYP144A1-FLV (full-length 434 amino acid version of Mycobacterium tuberculosis cytochrome P450 CYP144A1) (enzyme, UniProt P9WPL1 1-434)
chain: MRRSPKGSPGAVLDLQRRVDQAVSADHAELMTIAKDANTFFGAESVQDPYPLYERMRAAGSVHRIANSDFYAVCGWDAVNEAIGRPEDFSSNLTATMTYTAEGTAKPFEMDPLGGPTHVLATADDPAHAVHRKLVLRHLAAKRIRVMEQFTVQAADRLWVDGMQDGCIEWMGAMANRLPMMVVAELIGLPDPDIAQLVKWGYAATQLLEGLVENDQLVAAGVALMELSGYIFEQFDRAAADPRDNLLGELATACASGELDTLTAQVMMVTLFAAGGESTAALLGSAVWILATRPDIQQQVRANPELLGAFIEETLRYEPPFRGHYRHVRNATTLDGTELPADSHLLLLWGAANRDPAQFEAPGEFRLDRAGGKGHISFGKGAHFCVGAALARLEARIVLRLLLDRTSVIEAADVGGWLPSILVRRIERLELAVQ
binding: no binding (tested: 2 mg/ml)
